Measurements as given in publication doi:10.1101/2020.01.03.892703.

Chains of the proteins cited; added tags and fusions are not shown.
UniProt Q6PGF5: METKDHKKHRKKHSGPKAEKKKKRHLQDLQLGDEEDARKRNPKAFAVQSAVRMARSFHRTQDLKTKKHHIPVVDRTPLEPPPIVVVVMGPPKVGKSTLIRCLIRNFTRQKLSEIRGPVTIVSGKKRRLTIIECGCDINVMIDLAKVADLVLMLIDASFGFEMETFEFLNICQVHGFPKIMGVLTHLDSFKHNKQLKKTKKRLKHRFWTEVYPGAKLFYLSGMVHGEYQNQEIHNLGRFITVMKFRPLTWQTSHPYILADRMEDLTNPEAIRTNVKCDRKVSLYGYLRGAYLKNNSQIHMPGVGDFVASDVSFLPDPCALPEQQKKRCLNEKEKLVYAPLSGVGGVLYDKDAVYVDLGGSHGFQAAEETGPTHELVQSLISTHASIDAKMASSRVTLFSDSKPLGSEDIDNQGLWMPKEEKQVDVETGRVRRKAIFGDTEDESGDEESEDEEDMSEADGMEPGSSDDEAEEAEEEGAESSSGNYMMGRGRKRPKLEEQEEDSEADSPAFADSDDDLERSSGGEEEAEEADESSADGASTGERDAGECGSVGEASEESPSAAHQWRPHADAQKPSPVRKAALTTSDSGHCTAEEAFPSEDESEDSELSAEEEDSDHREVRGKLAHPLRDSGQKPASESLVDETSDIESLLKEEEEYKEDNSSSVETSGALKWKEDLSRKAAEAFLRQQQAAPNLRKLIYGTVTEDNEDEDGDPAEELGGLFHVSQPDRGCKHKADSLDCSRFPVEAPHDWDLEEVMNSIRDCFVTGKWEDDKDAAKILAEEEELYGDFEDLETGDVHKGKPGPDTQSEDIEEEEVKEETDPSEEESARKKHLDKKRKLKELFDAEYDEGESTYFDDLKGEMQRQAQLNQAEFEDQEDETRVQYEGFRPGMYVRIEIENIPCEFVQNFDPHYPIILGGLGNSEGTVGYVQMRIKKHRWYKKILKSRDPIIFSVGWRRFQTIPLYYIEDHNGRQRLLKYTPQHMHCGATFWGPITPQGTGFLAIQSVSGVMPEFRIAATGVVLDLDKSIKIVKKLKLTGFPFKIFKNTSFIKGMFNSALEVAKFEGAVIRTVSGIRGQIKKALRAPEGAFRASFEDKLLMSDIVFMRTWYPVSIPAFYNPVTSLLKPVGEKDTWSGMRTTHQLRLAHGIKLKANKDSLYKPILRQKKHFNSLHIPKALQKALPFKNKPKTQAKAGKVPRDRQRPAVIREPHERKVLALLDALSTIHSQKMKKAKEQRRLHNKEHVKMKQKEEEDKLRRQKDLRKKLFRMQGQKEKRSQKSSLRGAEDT
UniProt P10922: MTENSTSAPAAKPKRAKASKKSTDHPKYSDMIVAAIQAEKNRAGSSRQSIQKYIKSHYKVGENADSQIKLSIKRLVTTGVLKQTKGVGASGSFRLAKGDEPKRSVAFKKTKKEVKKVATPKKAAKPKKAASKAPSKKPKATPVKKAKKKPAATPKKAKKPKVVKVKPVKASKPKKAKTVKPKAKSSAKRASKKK
UniProt Q9JJZ6: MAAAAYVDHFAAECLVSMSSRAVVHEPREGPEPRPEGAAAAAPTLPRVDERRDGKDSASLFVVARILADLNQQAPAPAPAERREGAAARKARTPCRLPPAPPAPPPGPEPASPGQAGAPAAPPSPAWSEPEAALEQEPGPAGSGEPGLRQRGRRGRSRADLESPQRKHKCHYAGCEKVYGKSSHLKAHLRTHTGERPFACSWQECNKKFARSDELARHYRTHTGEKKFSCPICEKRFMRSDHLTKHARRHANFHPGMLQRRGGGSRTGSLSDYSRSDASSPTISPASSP
UniProt P97868: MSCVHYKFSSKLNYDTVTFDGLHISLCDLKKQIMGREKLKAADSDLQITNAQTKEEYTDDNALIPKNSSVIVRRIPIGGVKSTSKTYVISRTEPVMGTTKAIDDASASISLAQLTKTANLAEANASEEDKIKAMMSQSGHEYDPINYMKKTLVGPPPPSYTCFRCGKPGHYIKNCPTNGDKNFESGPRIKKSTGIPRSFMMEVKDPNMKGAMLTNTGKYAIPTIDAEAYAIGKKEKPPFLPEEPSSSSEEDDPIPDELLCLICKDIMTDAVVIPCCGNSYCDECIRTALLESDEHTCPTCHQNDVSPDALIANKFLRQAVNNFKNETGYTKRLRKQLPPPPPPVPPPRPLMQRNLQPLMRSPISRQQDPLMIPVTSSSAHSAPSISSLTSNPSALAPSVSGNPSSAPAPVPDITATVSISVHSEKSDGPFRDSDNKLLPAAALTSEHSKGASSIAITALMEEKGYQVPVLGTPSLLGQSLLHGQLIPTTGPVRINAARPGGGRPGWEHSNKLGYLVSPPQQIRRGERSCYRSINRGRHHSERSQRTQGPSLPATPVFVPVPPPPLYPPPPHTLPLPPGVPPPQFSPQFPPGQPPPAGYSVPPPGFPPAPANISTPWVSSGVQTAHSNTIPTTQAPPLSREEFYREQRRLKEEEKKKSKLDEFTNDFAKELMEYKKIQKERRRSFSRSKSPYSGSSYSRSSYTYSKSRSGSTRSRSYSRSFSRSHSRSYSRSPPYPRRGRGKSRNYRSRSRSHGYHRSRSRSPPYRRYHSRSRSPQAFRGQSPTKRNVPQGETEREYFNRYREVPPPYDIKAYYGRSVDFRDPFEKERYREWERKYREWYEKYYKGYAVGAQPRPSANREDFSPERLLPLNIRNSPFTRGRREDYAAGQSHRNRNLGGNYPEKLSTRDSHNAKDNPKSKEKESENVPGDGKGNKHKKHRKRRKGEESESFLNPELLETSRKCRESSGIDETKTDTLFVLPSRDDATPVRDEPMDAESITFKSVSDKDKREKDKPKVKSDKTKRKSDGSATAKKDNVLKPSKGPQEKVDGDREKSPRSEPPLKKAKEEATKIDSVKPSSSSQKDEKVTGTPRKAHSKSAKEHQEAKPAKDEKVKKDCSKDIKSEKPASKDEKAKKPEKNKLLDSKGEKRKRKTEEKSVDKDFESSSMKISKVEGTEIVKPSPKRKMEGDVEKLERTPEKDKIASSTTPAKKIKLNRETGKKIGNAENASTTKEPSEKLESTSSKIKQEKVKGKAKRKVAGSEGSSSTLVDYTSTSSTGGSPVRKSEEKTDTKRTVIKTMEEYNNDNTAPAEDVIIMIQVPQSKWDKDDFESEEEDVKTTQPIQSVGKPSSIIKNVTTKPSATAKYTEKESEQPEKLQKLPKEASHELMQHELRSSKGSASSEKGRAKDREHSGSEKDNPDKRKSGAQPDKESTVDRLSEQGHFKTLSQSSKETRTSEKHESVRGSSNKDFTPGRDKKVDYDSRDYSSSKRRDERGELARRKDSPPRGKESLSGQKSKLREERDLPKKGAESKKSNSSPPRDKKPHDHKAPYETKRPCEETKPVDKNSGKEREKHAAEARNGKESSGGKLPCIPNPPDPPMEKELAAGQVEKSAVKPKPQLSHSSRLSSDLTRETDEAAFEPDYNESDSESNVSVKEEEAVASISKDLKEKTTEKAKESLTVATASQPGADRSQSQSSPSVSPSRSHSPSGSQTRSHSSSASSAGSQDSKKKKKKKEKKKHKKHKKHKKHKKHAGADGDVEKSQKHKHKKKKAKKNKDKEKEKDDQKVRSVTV
UniProt Q9WUK4: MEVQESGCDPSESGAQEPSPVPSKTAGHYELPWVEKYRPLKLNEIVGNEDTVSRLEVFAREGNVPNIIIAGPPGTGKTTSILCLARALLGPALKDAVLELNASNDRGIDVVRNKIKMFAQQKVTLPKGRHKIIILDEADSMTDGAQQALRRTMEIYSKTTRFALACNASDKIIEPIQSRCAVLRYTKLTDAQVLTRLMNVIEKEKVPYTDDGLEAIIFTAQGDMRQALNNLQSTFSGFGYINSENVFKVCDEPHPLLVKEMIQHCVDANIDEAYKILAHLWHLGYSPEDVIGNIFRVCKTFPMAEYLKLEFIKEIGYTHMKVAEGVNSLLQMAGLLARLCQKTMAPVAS
UniProt Q8R323: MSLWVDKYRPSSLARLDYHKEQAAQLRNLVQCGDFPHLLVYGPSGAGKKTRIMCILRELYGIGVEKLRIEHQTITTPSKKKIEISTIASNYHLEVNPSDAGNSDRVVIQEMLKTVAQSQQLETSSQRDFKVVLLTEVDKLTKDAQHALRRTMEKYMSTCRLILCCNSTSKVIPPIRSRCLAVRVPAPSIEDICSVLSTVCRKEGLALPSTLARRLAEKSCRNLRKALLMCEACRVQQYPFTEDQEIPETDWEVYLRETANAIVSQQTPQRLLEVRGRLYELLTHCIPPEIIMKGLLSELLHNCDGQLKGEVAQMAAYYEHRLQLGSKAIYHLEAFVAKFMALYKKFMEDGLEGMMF
UniProt Q9D0F6: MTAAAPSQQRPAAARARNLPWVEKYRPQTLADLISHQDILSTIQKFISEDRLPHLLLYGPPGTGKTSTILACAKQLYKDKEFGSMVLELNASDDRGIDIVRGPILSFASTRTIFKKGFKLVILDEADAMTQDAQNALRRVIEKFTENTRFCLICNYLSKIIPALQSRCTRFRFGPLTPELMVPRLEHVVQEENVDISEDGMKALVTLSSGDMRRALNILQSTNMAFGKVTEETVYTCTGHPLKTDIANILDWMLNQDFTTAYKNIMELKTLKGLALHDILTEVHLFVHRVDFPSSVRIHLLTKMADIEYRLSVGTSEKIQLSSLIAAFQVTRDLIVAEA
UniProt Q91ZW3: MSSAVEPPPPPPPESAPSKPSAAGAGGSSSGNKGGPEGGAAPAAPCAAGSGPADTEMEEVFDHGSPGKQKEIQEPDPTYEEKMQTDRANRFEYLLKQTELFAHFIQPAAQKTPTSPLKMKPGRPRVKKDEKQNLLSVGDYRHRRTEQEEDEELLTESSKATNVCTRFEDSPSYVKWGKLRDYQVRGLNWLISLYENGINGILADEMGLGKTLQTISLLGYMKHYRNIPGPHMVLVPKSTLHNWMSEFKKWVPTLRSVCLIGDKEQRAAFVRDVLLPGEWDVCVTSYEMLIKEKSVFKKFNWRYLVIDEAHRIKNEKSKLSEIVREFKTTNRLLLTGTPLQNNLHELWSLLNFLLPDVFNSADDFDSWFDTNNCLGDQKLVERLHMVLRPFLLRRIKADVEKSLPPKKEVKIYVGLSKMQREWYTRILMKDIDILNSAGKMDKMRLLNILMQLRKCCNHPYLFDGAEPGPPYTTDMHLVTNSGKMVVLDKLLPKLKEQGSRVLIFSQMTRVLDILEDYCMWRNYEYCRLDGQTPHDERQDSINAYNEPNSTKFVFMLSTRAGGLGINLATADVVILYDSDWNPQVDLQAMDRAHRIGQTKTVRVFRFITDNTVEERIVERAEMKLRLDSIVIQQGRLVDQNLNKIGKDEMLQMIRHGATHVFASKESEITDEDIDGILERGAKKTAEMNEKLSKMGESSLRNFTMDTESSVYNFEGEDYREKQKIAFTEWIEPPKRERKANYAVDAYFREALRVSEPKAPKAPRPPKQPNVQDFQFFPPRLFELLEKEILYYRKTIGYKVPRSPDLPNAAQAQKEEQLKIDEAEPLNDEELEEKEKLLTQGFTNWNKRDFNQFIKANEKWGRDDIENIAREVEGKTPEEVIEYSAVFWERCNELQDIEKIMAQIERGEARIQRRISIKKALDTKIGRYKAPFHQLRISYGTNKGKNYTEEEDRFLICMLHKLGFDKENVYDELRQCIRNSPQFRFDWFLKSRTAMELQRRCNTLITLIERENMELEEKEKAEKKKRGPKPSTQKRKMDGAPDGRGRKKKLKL
UniProt Q08943: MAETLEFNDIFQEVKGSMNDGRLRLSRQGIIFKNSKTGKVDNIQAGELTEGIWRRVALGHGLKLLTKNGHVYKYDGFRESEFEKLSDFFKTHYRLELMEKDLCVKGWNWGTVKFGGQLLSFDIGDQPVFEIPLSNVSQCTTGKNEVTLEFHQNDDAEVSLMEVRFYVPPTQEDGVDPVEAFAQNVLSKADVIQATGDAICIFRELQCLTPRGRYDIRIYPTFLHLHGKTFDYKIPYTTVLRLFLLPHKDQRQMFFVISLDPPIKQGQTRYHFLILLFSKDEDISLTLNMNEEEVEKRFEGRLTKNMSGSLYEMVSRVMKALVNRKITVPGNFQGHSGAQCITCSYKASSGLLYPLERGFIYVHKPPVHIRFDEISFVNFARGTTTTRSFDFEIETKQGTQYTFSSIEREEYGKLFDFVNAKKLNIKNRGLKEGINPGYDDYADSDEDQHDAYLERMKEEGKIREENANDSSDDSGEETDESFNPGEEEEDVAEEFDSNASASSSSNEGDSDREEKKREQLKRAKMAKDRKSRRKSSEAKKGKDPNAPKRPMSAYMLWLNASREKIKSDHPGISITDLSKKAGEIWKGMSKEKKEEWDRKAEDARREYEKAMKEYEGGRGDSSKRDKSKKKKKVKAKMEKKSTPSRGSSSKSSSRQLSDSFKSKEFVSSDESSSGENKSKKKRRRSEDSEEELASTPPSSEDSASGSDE
UniProt Q8K0H5: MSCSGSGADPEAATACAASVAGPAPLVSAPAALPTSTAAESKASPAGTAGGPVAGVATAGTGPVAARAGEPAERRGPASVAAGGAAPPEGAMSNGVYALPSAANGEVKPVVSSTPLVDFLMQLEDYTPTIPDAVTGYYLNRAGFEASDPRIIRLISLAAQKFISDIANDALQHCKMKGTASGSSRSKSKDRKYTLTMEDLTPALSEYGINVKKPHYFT

molecular target: T1, biotin-tagged XPF (mouse (endogenous knock-in in MEFs)) (UniProt Q9QZD4); assay: affinity purification with mass spectrometry
T1 sequence (chain, biotin on the 15 aa tag (by the BirA ligase in vivo)): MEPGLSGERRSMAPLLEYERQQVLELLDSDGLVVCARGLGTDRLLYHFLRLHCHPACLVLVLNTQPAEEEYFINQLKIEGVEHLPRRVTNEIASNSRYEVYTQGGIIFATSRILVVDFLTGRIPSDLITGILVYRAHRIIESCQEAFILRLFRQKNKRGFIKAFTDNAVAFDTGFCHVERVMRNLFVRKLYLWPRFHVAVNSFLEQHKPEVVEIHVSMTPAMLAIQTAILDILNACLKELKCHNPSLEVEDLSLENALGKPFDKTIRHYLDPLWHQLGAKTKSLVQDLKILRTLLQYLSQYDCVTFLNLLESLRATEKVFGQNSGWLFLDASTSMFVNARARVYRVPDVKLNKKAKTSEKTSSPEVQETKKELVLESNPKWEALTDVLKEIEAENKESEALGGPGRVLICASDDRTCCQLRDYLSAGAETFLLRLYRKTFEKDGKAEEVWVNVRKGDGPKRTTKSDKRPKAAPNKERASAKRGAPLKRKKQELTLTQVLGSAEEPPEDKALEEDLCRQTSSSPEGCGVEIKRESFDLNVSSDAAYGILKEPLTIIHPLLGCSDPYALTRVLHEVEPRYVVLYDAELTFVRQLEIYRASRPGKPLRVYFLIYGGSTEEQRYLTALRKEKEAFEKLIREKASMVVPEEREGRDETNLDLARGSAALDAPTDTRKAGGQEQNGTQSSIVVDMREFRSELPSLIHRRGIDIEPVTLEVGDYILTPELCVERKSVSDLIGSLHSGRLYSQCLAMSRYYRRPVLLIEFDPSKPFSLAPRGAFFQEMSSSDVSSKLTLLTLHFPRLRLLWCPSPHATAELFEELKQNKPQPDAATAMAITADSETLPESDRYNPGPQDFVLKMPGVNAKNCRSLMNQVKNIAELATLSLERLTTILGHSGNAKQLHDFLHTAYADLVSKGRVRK

Question: How did the binding turn out when BMS1 (from UniProt Q6PGF5 1-1284) was run?
Answer: Its binding is “binds”.

Question: With H1F0 (from UniProt P10922 1-194) as the substance, how does the binding read?
Answer: Its binding is “binds”.

Question: With HIST1h1b (from UniProt P43276 1-223) as the substance, how does the binding read?
Answer: Its binding is “binds”.

Question: HIST1h1e (from UniProt P43274 1-219) was tested. Which binding did it give?
Answer: The binding was “binds”.

Question: How did the binding turn out when KLF13 (from UniProt Q9JJZ6 1-289) was run?
Answer: The binding was “binds”.

Question: Which binding does the source give for MDN1 (from UniProt A2ANY6 1-5589) here?
Answer: Its binding is “binds”.

Question: With RBBP6 (from UniProt P97868 1-1790) as the substance, how does the binding read?
Answer: Its binding is “binds”.

Question: With RCF2 (from UniProt Q9WUK4 1-349) as the substance, how does the binding read?
Answer: The binding was “binds”.

Question: For RCF3 (from UniProt Q8R323 1-356), which binding is on record?
Answer: Its binding is “binds”.

Question: Which binding does the source give for RCF4 (from UniProt Q99J62 1-364) here?
Answer: Its binding is “binds”.

Question: For RCF5 (from UniProt Q9D0F6 1-339), which binding is on record?
Answer: The binding was “binds”.

Question: For SMARCA5 (from UniProt Q91ZW3 1-1051), which binding is on record?
Answer: The binding was “binds”.

Question: For SMC3 (from UniProt Q9CW03 1-1217), which binding is on record?
Answer: The binding was “binds”.

Question: How did the binding turn out when SSRP1 (from UniProt Q08943 1-708) was run?
Answer: The binding was “binds”.

Question: With TAF4 (from UniProt E9QAP7 1-1042) as the substance, how does the binding read?
Answer: Its binding is “binds”.

Question: Which binding does the source give for TAF6 (from UniProt Q62311 1-678) here?
Answer: Its binding is “binds”.

Question: For TAF10 (from UniProt Q8K0H5 1-218), which binding is on record?
Answer: Its binding is “binds”.

No constants are given. Whether binding was seen depends on the method and setting. Binding seen in cells or lysates may run through a third protein. Here binding means that the protein was enriched with, or labelled near, the bait; the list need not be complete. Where a sequence is shown, tags or fusion partners need not be part of it.
